PubChem BioAssay AID1053209 | Peter MacCallum Cancer Centre – 2014
Here is an unselected part of about 1,580 deposited reagents. In the full data, 207 (13%) are marked active. 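Rows are single siRNAs; four siRNAs per gene were tested, a gene counting as confirmed only when at least two agree.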 Reagents against one gene are numbered here. Further read-outs or replicates are left out here.

- Test: 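Gene losses that combine with doxorubicin to kill mouse bone cancer cells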 (follow-up of hits)
- Cells: mouse primary osteosarcoma cells
- Reagent: single siRNA against mouse genes, 25 nM (text also states 40 nM)
- Duration: about 120 h (48 h before drug, then 72 h with drug)
- Conditions: doxorubicin 100 nM (about IC30-40), added 48 h after transfection, for 72 h
- Read-out: 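Viability measured by ATP luminescence with and without doxorubicin, each replicate scaled to non-targeting siRNA NT1, averaged over two replicates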
- Reading the numbers: viability with doxorubicin, vs NT1: higher = more viable cells under doxorubicin; viability without drug, vs NT1: higher = more viable cells without drug
- Call rule: 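Counted as active (class LC dox) if viability falls to 0.7 of NT1 or below under doxorubicin but stays within 0.7 to 1.1 without drug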

Cd2bp2 (CD2 cytoplasmic tail binding protein 2) #1: combined effect class = normal viability with and without drug; viability with doxorubicin, vs NT1 = 1.02; viability without drug, vs NT1 = 0.94; outcome = inactive
Cd2bp2 (CD2 cytoplasmic tail binding protein 2) #2: combined effect class = normal viability with and without drug; viability with doxorubicin, vs NT1 = 0.86; viability without drug, vs NT1 = 1.02; outcome = inactive
Cd2bp2 (CD2 cytoplasmic tail binding protein 2) #3: combined effect class = normal viability with and without drug; viability with doxorubicin, vs NT1 = 1.08; viability without drug, vs NT1 = 1; outcome = inactive
Cd2bp2 (CD2 cytoplasmic tail binding protein 2) #4: combined effect class = normal viability with and without drug; viability with doxorubicin, vs NT1 = 1.02; viability without drug, vs NT1 = 1.02; outcome = inactive
Puf60 (poly-U binding splicing factor 60) #1: combined effect class = low viability only with doxorubicin; normal without drug; viability with doxorubicin, vs NT1 = 0.61; viability without drug, vs NT1 = 0.84; outcome = active
Puf60 (poly-U binding splicing factor 60) #2: combined effect class = low viability with and without drug; viability with doxorubicin, vs NT1 = 0.44; viability without drug, vs NT1 = 0.67; outcome = inactive
Puf60 (poly-U binding splicing factor 60) #3: combined effect class = low viability only with doxorubicin; normal without drug; viability with doxorubicin, vs NT1 = 0.4; viability without drug, vs NT1 = 0.86; outcome = active
Puf60 (poly-U binding splicing factor 60) #4: combined effect class = normal viability with and without drug; viability with doxorubicin, vs NT1 = 0.83; viability without drug, vs NT1 = 0.9; outcome = inactive
Brat1 (BRCA1-associated ATM activator 1) #1: combined effect class = normal viability with and without drug; viability with doxorubicin, vs NT1 = 0.82; viability without drug, vs NT1 = 1.04; outcome = inactive
Brat1 (BRCA1-associated ATM activator 1) #2: combined effect class = normal viability with and without drug; viability with doxorubicin, vs NT1 = 0.79; viability without drug, vs NT1 = 1.04; outcome = inactive
Brat1 (BRCA1-associated ATM activator 1) #3: combined effect class = normal viability with and without drug; viability with doxorubicin, vs NT1 = 0.97; viability without drug, vs NT1 = 1.02; outcome = inactive
Brat1 (BRCA1-associated ATM activator 1) #4: combined effect class = normal viability with and without drug; viability with doxorubicin, vs NT1 = 0.86; viability without drug, vs NT1 = 0.99; outcome = inactive

Next part; the last 3 above are carried over.
Brat1 (BRCA1-associated ATM activator 1) #2: combined effect class = normal viability with and without drug; viability with doxorubicin, vs NT1 = 0.79; viability without drug, vs NT1 = 1.04; outcome = inactive
Brat1 (BRCA1-associated ATM activator 1) #3: combined effect class = normal viability with and without drug; viability with doxorubicin, vs NT1 = 0.97; viability without drug, vs NT1 = 1.02; outcome = inactive
Brat1 (BRCA1-associated ATM activator 1) #4: combined effect class = normal viability with and without drug; viability with doxorubicin, vs NT1 = 0.86; viability without drug, vs NT1 = 0.99; outcome = inactive
Rasal1 (RAS protein activator like 1 (GAP1 like)) #1: combined effect class = normal viability with and without drug; viability with doxorubicin, vs NT1 = 1.04; viability without drug, vs NT1 = 1; outcome = inactive
Rasal1 (RAS protein activator like 1 (GAP1 like)) #2: combined effect class = normal viability with and without drug; viability with doxorubicin, vs NT1 = 0.89; viability without drug, vs NT1 = 0.95; outcome = inactive
Rasal1 (RAS protein activator like 1 (GAP1 like)) #3: combined effect class = high viability only without drug; viability with doxorubicin, vs NT1 = 1.06; viability without drug, vs NT1 = 1.1; outcome = inactive
Rasal1 (RAS protein activator like 1 (GAP1 like)) #4: combined effect class = normal viability with and without drug; viability with doxorubicin, vs NT1 = 0.84; viability without drug, vs NT1 = 1; outcome = inactive
Tcl1b2 (T cell leukemia/lymphoma 1B, 2) #1: combined effect class = low viability with and without drug; viability with doxorubicin, vs NT1 = 0.3; viability without drug, vs NT1 = 0.62; outcome = inactive
Tcl1b2 (T cell leukemia/lymphoma 1B, 2) #2: combined effect class = normal viability with and without drug; viability with doxorubicin, vs NT1 = 0.9; viability without drug, vs NT1 = 1; outcome = inactive
Tcl1b2 (T cell leukemia/lymphoma 1B, 2) #3: combined effect class = normal viability with and without drug; viability with doxorubicin, vs NT1 = 1.08; viability without drug, vs NT1 = 1.07; outcome = inactive
Tcl1b2 (T cell leukemia/lymphoma 1B, 2) #4: combined effect class = normal viability with and without drug; viability with doxorubicin, vs NT1 = 0.98; viability without drug, vs NT1 = 1.04; outcome = inactive
Reg1 (regenerating islet-derived 1) #1: combined effect class = low viability only with doxorubicin; normal without drug; viability with doxorubicin, vs NT1 = 0.48; viability without drug, vs NT1 = 0.71; outcome = active
Reg1 (regenerating islet-derived 1) #2: combined effect class = normal viability with and without drug; viability with doxorubicin, vs NT1 = 0.71; viability without drug, vs NT1 = 0.93; outcome = inactive
Reg1 (regenerating islet-derived 1) #3: combined effect class = normal viability with and without drug; viability with doxorubicin, vs NT1 = 0.92; viability without drug, vs NT1 = 1.02; outcome = inactive
Reg1 (regenerating islet-derived 1) #4: combined effect class = normal viability with and without drug; viability with doxorubicin, vs NT1 = 0.74; viability without drug, vs NT1 = 0.84; outcome = inactive
